{"source": "patent US20090233319A1", "binders": {"B1": {"name": "recombinant SCCA-1 (squamous cell carcinoma antigen 1) (protein, UniProt P29508 1-390, looked up)", "chain": "MNSLSEANTKFMFDLFQQFRKSKENNIFYSPISITSALGMVLLGAKDNTAQQIKKVLHFDQVTENTTGKAATYHVDRSGNVHHQFQKLLTEFNKSTDAYELKIANKLFGEKTYLFLQEYLDAIKKFYQTSVESVDFANAPEESRKKINSWVESQTNEKIKNLIPEGNIGSNTTLVLVNAIYFKGQWEKKFNKEDTKEEKFWPNKNTYKSIQMMRQYTSFHFASLEDVQAKVLEIPYKGKDLSMIVLLPNEIDGLQKLEEKLTAEKLMEWTSLQNMRETRVDLHLPRFKVEESYDLKDTLRTMGMVDIFNGDADLSGMTGSRGLVLSGVLHKAFVEVTEEGAEAAAATAVVGFGSSPTSTNEEFHCNHPFLFFIRQNKTNSILFYGRFSSP"}}, "target": "T1, purified caspase-14 from human cornified cells (heterodimer of large subunit 17 KDa and small subunit 11 KDa) (human) (UniProt P31944)", "T1 sequence (looked up) 1": "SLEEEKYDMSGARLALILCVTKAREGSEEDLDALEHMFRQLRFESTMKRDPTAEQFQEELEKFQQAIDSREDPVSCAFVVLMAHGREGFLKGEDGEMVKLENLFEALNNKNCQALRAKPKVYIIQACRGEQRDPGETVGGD", "T1 sequence (looked up) 2": "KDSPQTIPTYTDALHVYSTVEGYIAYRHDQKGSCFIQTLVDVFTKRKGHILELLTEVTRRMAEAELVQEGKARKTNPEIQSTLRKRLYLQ", "assay": "inferred from inhibition of caspase-14 activity that was not recovered with extended incubation", "note": "Results are given in words; binding and its absence hold for the method and conditions named. Some binding calls cover weakened binding; strength is not graded here."}
{"binder": "B1", "values": [{"measurement": "binding", "value": "binds"}]}
